# According to the supplement of paper PMC8728848:
# The list shows a part of the results.
# B1: SHCBP1-GST (Homo sapiens), Q8NEM2 (protein)
# chain: MADGSLTGGGLEAAAMAPERMGWAVEQELASLEKGLFQDEDSCSDCSYRDKPGSSLQSFMPEGKTFFPEIFQTNQLLFYERFRAYQDYILADCKASEVQEFTAEFLEKVLEPSGWRAVWHTNVFKVLVEITDVDFAALKAVVRLAEPYLCDSQVSTFTMECMKELLDLKEHRLPLQELWVVFDDSGVFDQTALAIEHVRFFYQNIWRSWDEEEEDEYDYFVRCVEPRLRLHYDILEDRVPSGLIVDYHNLLSQCEESYRKFLNLRSSLSNCNSDSEQENISMVEGLKLYSEMEQLKQKLKLIENPLLRYVFGYQKNSNIQAKGVRSSGQKITHVVSSTMMAGLLRSLLTDRLCQEPGEEEREIQFHSDPLSAINACFEGDTVIVCPGHYVVHGTFSIADSIELEGYGLPDDIVIEKRGKGDTFVDCTGADIKISGIKFVQHDAVEGILIVHRGKTTLENCVLQCETTGVTVRTSAEFLMKNSDLYGAKGAGIEIYPGSQCTLSDNGIHHCKEGILIKDFLDEHYDIPKISMVNNIIHNNEGYGVVLVKPTIFSDLQENAEDGTEENKALKIQTSGEPDVAERVDLEELIECATGKMELCARTDPSEQVEGNCEIVNELIAASTQKGQIKKKRLSELGITQADDNLMSQEMFVGIVGNQFKWNGKGSFGTFLF
# Experiments:
# Test in all cases: glycan array binding signal (z-score within array); higher = stronger binding
# Settings in all cases: glycan notation: IUPAC condensed, linker removed
# [1] = target: Gal3S(b1-3)[Fuc(a1-4)]GlcNAc
# Summary of the method: (§1)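 The binding signal is a Z-score computed within each array and averaged over linkers. Arrays of the same protein sequence at different concentrations or buffers were also averaged together. Data originate from 3228 arrays in the Consortium for Functional Glycomics database, kept only where the protein sequence was available.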
# [2] = target: Gal3S(b1-4)Glc
# Summary of the method: as §1
# [3] = target: Gal3S(b1-4)Glc6S
# Summary of the method: as §1
# [4] = target: Gal3S(b1-4)GlcNAc
# Summary of the method: as §1
# [5] = target: Gal3S(b1-4)[Fuc(a1-3)]Glc6S
# Summary of the method: as §1
# [6] = target: Gal3S(b1-4)[Fuc(a1-3)]GlcNAc
# Summary of the method: as §1
# [7] = target: Gal3S(b1-4)[Fuc(a1-3)]GlcNAc6S
# Summary of the method: as §1
# [8] = target: Gal3S4S(b1-4)GlcNAc
# Summary of the method: as §1
# [9] = target: Gal3S6S(b1-4)GlcNAc
# Summary of the method: as §1
# [10] = target: Gal3S6S(b1-4)GlcNAc6S
# Summary of the method: as §1
# [11] = target: Gal4S(b1-4)GlcNAc
# Summary of the method: as §1
# [12] = target: Gal4S6S(b1-4)GlcNAc
# Summary of the method: as §1
# [13] = target: Gal6P(b1-4)GlcNAc
# Summary of the method: as §1
# [14] = target: Gal6S(b1-3)GlcNAc
# Summary of the method: as §1
# [15] = target: Gal6S(b1-3)GlcNAc6S
# Summary of the method: as §1
# [16] = target: Gal6S(b1-4)Glc
# Summary of the method: as §1
# [17] = target: Gal6S(b1-4)Glc6S
# Summary of the method: as §1
# [18] = target: Gal6S(b1-4)GlcNAc
# Summary of the method: as §1
# [19] = target: Gal6S(b1-4)GlcNAc6S
# Summary of the method: as §1
# [20] = target: GalNAc(a1-3)Gal
# Summary of the method: as §1
# [21] = target: GalNAc(a1-3)GalNAc
# Summary of the method: as §1
# [22] = target: GalNAc(a1-3)GalNAc(b1-3)Gal(a1-4)Gal(b1-4)Glc
# Summary of the method: as §1
# [23] = target: GalNAc(a1-3)GalNAc(b1-3)Gal(a1-4)Gal(b1-4)GlcNAc
# Summary of the method: as §1
# [24] = target: GalNAc(b1-3)Gal
# Summary of the method: as §1
# [25] = target: GalNAc(b1-3)Gal(a1-4)Gal(b1-4)GlcNAc
# Summary of the method: as §1
# [26] = target: GalNAc(b1-3)Gal(a1-4)Gal(b1-4)GlcNAc(b1-3)Gal(b1-4)Glc
# Summary of the method: as §1
# [27] = target: GalNAc(b1-3)Gal(a1-6)Gal(b1-4)Glc
# Summary of the method: as §1
# [28] = target: GalNAc(b1-3)GalNAc
# Summary of the method: as §1
# [29] = target: GalNAc(b1-3)GlcNAc
# Summary of the method: as §1
# [30] = target: GalNAc(b1-4)Gal(b1-4)Glc
# Summary of the method: as §1
# [31] = target: GalNAc(b1-4)GlcNAc
# Summary of the method: as §1
# [32] = target: GalNAc(b1-4)GlcNAc(b1-2)Man
# Summary of the method: as §1
# [33] = target: GalNAc(b1-4)GlcNAc(b1-2)Man(a1-3)[GalNAc(b1-4)GlcNAc(b1-2)Man(a1-6)]Man(b1-4)GlcNAc(b1-4)GlcNAc
# Summary of the method: as §1
# [34] = target: GalNAc(b1-4)GlcNAc(b1-3)GalNAc(b1-4)GlcNAc
# Summary of the method: as §1
# [35] = target: GalNAc(b1-4)GlcNAc6S
# Summary of the method: as §1
# [36] = target: GalNAc(b1-6)GalNAc
# Summary of the method: as §1
# [37] = target: GalNAc3S(b1-4)GlcNAc
# Summary of the method: as §1
# [38] = target: GalNAc3S(b1-4)GlcNAc3S
# Summary of the method: as §1
# [39] = target: GalNAc3S(b1-4)[Fuc(a1-3)]GlcNAc
# Summary of the method: as §1
# [40] = target: GalNAc4S6S(b1-4)GlcNAc
# Summary of the method: as §1
# [41] = target: GalNAc6S(b1-4)GlcNAc
# Summary of the method: as §1
# [42] = target: Glc(a1-4)Glc
# Summary of the method: as §1
# [43] = target: Glc(a1-4)Glc(a1-4)Glc(a1-4)Glc
# Summary of the method: as §1
# [44] = target: Glc(a1-6)Glc(a1-6)Glc
# Summary of the method: as §1
# [45] = target: Glc(a1-6)Glc(a1-6)Glc(a1-6)Glc
# Summary of the method: as §1
# [46] = target: Glc(b1-4)Glc
# Summary of the method: as §1
# [47] = target: Glc(b1-6)Glc
# Summary of the method: as §1
# [48] = target: GlcA(b1-3)Gal
# Summary of the method: as §1
# [49] = target: GlcA(b1-3)GlcNAc
# Summary of the method: as §1
# [50] = target: GlcA(b1-6)Gal
# Summary of the method: as §1
# [51] = target: GlcA3S(b1-3)Gal(b1-4)GlcNAc(b1-2)Man
# Summary of the method: as §1
# [52] = target: GlcA3S(b1-3)Gal(b1-4)GlcNAc(b1-3)Gal(b1-4)Glc
# Summary of the method: as §1
# [53] = target: GlcNAc(a1-3)Gal(b1-4)GlcNAc
# Summary of the method: as §1
# [54] = target: GlcNAc(a1-4)Gal(b1-3)GlcNAc
# Summary of the method: as §1
# [55] = target: GlcNAc(a1-4)Gal(b1-4)GalNAc
# Summary of the method: as §1
# [56] = target: GlcNAc(a1-4)Gal(b1-4)GlcNAc
# Summary of the method: as §1
# [57] = target: GlcNAc(a1-4)Gal(b1-4)GlcNAc(b1-3)Gal(b1-4)Glc
# Summary of the method: as §1
# [58] = target: GlcNAc(a1-4)Gal(b1-4)GlcNAc(b1-3)Gal(b1-4)GlcNAc
# Summary of the method: as §1
# [59] = target: GlcNAc(a1-4)Gal(b1-4)GlcNAc(b1-3)Gal(b1-4)GlcNAc(b1-3)Gal(b1-4)GlcNAc
# Summary of the method: as §1
# [60] = target: GlcNAc(a1-4)Gal(b1-4)GlcNAc(b1-3)Gal(b1-4)[Fuc(a1-3)]GlcNAc(b1-3)Gal(b1-4)[Fuc(a1-3)]GlcNAc
# Summary of the method: as §1
binder,measurement,setting,value
B1,glycan array binding signal (z-score),[1],0.036
same,glycan array binding signal (z-score),[2],0.623
same,glycan array binding signal (z-score),[3],0.663
same,glycan array binding signal (z-score),[4],0.013
same,glycan array binding signal (z-score),[5],0.287
same,glycan array binding signal (z-score),[6],-0.294
same,glycan array binding signal (z-score),[7],-0.428
same,glycan array binding signal (z-score),[8],-0.52
same,glycan array binding signal (z-score),[9],0.69
same,glycan array binding signal (z-score),[10],0.489
same,glycan array binding signal (z-score),[11],-0.617
same,glycan array binding signal (z-score),[12],0.332
same,glycan array binding signal (z-score),[13],-0.929
same,glycan array binding signal (z-score),[14],-0.576
same,glycan array binding signal (z-score),[15],-0.306
same,glycan array binding signal (z-score),[16],-0.03
same,glycan array binding signal (z-score),[17],-0.018
same,glycan array binding signal (z-score),[18],-0.413
same,glycan array binding signal (z-score),[19],-0.431
same,glycan array binding signal (z-score),[20],0.085
same,glycan array binding signal (z-score),[21],-0.406
same,glycan array binding signal (z-score),[22],-0.799
same,glycan array binding signal (z-score),[23],-1.12
same,glycan array binding signal (z-score),[24],-0.294
same,glycan array binding signal (z-score),[25],1.78
same,glycan array binding signal (z-score),[26],-0.031
same,glycan array binding signal (z-score),[27],-0.174
same,glycan array binding signal (z-score),[28],-0.386
same,glycan array binding signal (z-score),[29],-0.625
same,glycan array binding signal (z-score),[30],-0.343
same,glycan array binding signal (z-score),[31],-0.137
same,glycan array binding signal (z-score),[32],-0.09
same,glycan array binding signal (z-score),[33],2.96
same,glycan array binding signal (z-score),[34],-0.059
same,glycan array binding signal (z-score),[35],-0.496
same,glycan array binding signal (z-score),[36],0.273
same,glycan array binding signal (z-score),[37],-0.101
same,glycan array binding signal (z-score),[38],-0.53
same,glycan array binding signal (z-score),[39],-0.082
same,glycan array binding signal (z-score),[40],-0.663
same,glycan array binding signal (z-score),[41],-0.066
same,glycan array binding signal (z-score),[42],0.427
same,glycan array binding signal (z-score),[43],-0.15
same,glycan array binding signal (z-score),[44],-0.548
same,glycan array binding signal (z-score),[45],0.181
same,glycan array binding signal (z-score),[46],0.043
same,glycan array binding signal (z-score),[47],-0.297
same,glycan array binding signal (z-score),[48],-0.172
same,glycan array binding signal (z-score),[49],-0.744
same,glycan array binding signal (z-score),[50],-0.457
same,glycan array binding signal (z-score),[51],-0.147
same,glycan array binding signal (z-score),[52],-0.5
same,glycan array binding signal (z-score),[53],-0.189
same,glycan array binding signal (z-score),[54],-0.213
same,glycan array binding signal (z-score),[55],0.552
same,glycan array binding signal (z-score),[56],0.045
same,glycan array binding signal (z-score),[57],-0.361
same,glycan array binding signal (z-score),[58],0.084
same,glycan array binding signal (z-score),[59],-0.634
same,glycan array binding signal (z-score),[60],2.67

# Two records drawn at random from those above:
binder,measurement,setting,value
B1,glycan array binding signal (z-score),[46],0.043
same,glycan array binding signal (z-score),[33],2.96
